Values from PubChem BioAssay AID1224830 (NIAID, 2016).
Here is an unselected part of about 18,000 deposited reagents. About 2,900 of them (16%) count as active. 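Calls are made per well; low scores hint the gene aids the LPS response, high scores that it dampens it.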 Repeated entries: four replicate wells of each siRNA pool.

Purpose: 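Genes whose knock-down alters the TNF-alpha reporter response to LPS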 (primary screen)
Cell system: human THP-1 monocytic leukaemia cells, TNF dual-luciferase reporter clone, PMA-differentiated to macrophage-like cells
Reagents: siRNA pool against human genes, 50 nM
Time to read-out: LPS for 4 h, given about 3 days after siRNA transfection
Challenge: bacterial LPS (TLR4 ligand), 10 ng/ml
Measurement: 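TNF firefly reporter luminescence divided by renilla, normalised to the plate median, then turned into a robust z-score for each replicate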
Reading the numbers: TNF reporter robust z-score: higher = stronger TNF reporter response to LPS
Hit rule: 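a well is active when its z-score exceeds 2.8 or falls below -1.5; control wells carry no call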

gene knocked down	PubChem SID	TNF reporter robust z-score	outcome
IVD	SID315449578	-1.26	inactive
IVD	SID315449578	-1.01	inactive
IVD	SID315449578	-1.31	inactive
IVD	SID315449578	-0.83	inactive
TRIM64	SID315461489	2.44	inactive
TRIM64	SID315461489	0.8	inactive
TRIM64	SID315461489	0.41	inactive
TRIM64	SID315461489	1.29	inactive
GAP43	SID315448834	-0.26	inactive
GAP43	SID315448834	-0.25	inactive
GAP43	SID315448834	-0.41	inactive
GAP43	SID315448834	-0.36	inactive
NMT1	SID315450267	-0.18	inactive
NMT1	SID315450267	1.73	inactive
NMT1	SID315450267	0.5	inactive
NMT1	SID315450267	2	inactive
QTGAL	SID315462289	-0.03	inactive
QTGAL	SID315462289	0.08	inactive
QTGAL	SID315462289	0.89	inactive
QTGAL	SID315462289	0.46	inactive
TYW2	SID315457365	0.41	inactive
TYW2	SID315457365	2.15	inactive
TYW2	SID315457365	1.75	inactive
TYW2	SID315457365	1.41	inactive
SPAG1	SID315451594	-1.87	active
SPAG1	SID315451594	-1.53	active
SPAG1	SID315451594	-1.36	inactive
SPAG1	SID315451594	-1.77	active
CORO1B	SID315458314	-1.51	active
CORO1B	SID315458314	-1.15	inactive
CORO1B	SID315458314	-1.69	active
CORO1B	SID315458314	-1	inactive
AXL	SID315447499	-0.51	inactive
AXL	SID315447499	1.44	inactive
AXL	SID315447499	0.72	inactive
AXL	SID315447499	0.15	inactive
KYAT1	SID315447733	1.71	inactive
KYAT1	SID315447733	2.04	inactive
KYAT1	SID315447733	0.56	inactive
KYAT1	SID315447733	3.01	active
NT5C	SID315456297	-1.21	inactive
NT5C	SID315456297	-0.86	inactive
NT5C	SID315456297	0.19	inactive
NT5C	SID315456297	-0.75	inactive
ZMIZ1	SID315458316	-1.26	inactive
ZMIZ1	SID315458316	-0.72	inactive
ZMIZ1	SID315458316	-1.37	inactive
ZMIZ1	SID315458316	-1.03	inactive
UNC93B1	SID315459923	-0.28	inactive
UNC93B1	SID315459923	-0.46	inactive
UNC93B1	SID315459923	-1.1	inactive
UNC93B1	SID315459923	-0.32	inactive
GYPB	SID315449118	1.05	inactive
GYPB	SID315449118	0.8	inactive
GYPB	SID315449118	0.58	inactive
GYPB	SID315449118	0.48	inactive
MTCL1	SID315455111	1.46	inactive
MTCL1	SID315455111	0.89	inactive
MTCL1	SID315455111	0.4	inactive
MTCL1	SID315455111	0.61	inactive
FBXO39	SID315462753	-1.95	active
FBXO39	SID315462753	0.67	inactive
FBXO39	SID315462753	2.04	inactive
FBXO39	SID315462753	1.82	inactive
RNF14	SID315453415	1.87	inactive
RNF14	SID315453415	0.43	inactive
RNF14	SID315453415	0.28	inactive
RNF14	SID315453415	3.4	active
PRKAG3	SID315456924	-1.33	inactive
PRKAG3	SID315456924	-0.99	inactive
PRKAG3	SID315456924	-0.59	inactive
PRKAG3	SID315456924	-0.54	inactive
IL16	SID315449489	1.56	inactive
IL16	SID315449489	0.46	inactive
IL16	SID315449489	1	inactive
IL16	SID315449489	1.9	inactive
PHC3	SID315459620	2.31	inactive
PHC3	SID315459620	2.65	inactive
PHC3	SID315459620	2.59	inactive
PHC3	SID315459620	3.07	active
ARIH2	SID315454077	0.59	inactive
ARIH2	SID315454077	-0.89	inactive
ARIH2	SID315454077	-0.78	inactive
ARIH2	SID315454077	0.23	inactive
CHRNA4	SID315447927	-1.38	inactive
CHRNA4	SID315447927	-1.14	inactive
CHRNA4	SID315447927	-1.57	active
CHRNA4	SID315447927	-0.26	inactive
KCNJ10	SID315449621	0.48	inactive
KCNJ10	SID315449621	0.92	inactive
KCNJ10	SID315449621	0.56	inactive
KCNJ10	SID315449621	0.8	inactive
THAP9	SID315459414	0.33	inactive
THAP9	SID315459414	0.59	inactive
THAP9	SID315459414	0.76	inactive
THAP9	SID315459414	0.45	inactive
OR4S1	SID315463515	-0.67	inactive
OR4S1	SID315463515	2.28	inactive
OR4S1	SID315463515	-0.43	inactive
OR4S1	SID315463515	0.25	inactive
SLC5A8	SID315462707	-0.81	inactive
SLC5A8	SID315462707	-0.72	inactive
SLC5A8	SID315462707	-0.85	inactive
SLC5A8	SID315462707	-0.78	inactive
SLC38A4	SID315457397	0	inactive
SLC38A4	SID315457397	1.4	inactive
SLC38A4	SID315457397	0.97	inactive
SLC38A4	SID315457397	1.24	inactive
UQCR10	SID315456176	0.52	inactive
UQCR10	SID315456176	0.81	inactive
UQCR10	SID315456176	0.5	inactive
UQCR10	SID315456176	-0.27	inactive

Copied from the entries so far, 18 entries:
gene knocked down	PubChem SID	TNF reporter robust z-score	outcome
THAP9	SID315459414	0.59	inactive
THAP9	SID315459414	0.76	inactive
THAP9	SID315459414	0.45	inactive
OR4S1	SID315463515	-0.67	inactive
OR4S1	SID315463515	2.28	inactive
OR4S1	SID315463515	-0.43	inactive
OR4S1	SID315463515	0.25	inactive
SLC5A8	SID315462707	-0.81	inactive
SLC5A8	SID315462707	-0.72	inactive
SLC5A8	SID315462707	-0.85	inactive
SLC5A8	SID315462707	-0.78	inactive
SLC38A4	SID315457397	0	inactive
SLC38A4	SID315457397	1.4	inactive
SLC38A4	SID315457397	0.97	inactive
SLC38A4	SID315457397	1.24	inactive
UQCR10	SID315456176	0.52	inactive
UQCR10	SID315456176	0.81	inactive
UQCR10	SID315456176	0.5	inactive
